# Results from one PubChem assay

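Luminescence from an EWS-FLI1 target-promoter (NR0B1) reporter, set against a CMV-promoter reporter, two days after silencing single genes in TC32 Ewing sarcoma cells.
Each siRNA was applied at 20 nM.
A z-score of the log NR0B1-over-CMV signal, less the median of siRNAs with the same seed; more negative means a stronger specific loss of the NR0B1 reporter.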

This is part of the screen; most of the strongest results are not listed here.
Sequences are the guide (antisense) strand, without overhang.

Sequence,target gene,seed-corrected z-score
AAAGUUUUCGUGUUCUGGG,HIF3A,0.5216
UUCAGUUCCUGGUUUAUCC,KIF7,0.2465
UACAAUCGGAGAUAUGCGG,FBXL13,0.4776
UGGGUGGUCAUGACGUAGG,RAI2,-0.6635
UGUACUUCCACCAUCUUCG,SLC35F1,-0.0165
UUAACUGAUCCGUAGAGGC,RAB27A,0.7295
UCUGCCGUAACUGUCGCUG,RBFOX3,-1.132
UAUGGUAAGAUCAACCAUC,LENEP,0.04608
UAAUCUCUUGGAGCUGUCC,FER1L6-AS1,0.5724
UUAGCGAAGUCCACGAUCU,NR1H2,0.1789
UAUUUUGACAUUCCUGUCC,SYTL3,0.9829
UUUCGGGUAAGUCCAAUGG,EEF1AKMT1,0.498
UUUCGAACAUCCUUGUUUG,EIF3E,0.1798
UCAGGGUAGAGACUGUAGC,BARX1,0.6744
UAAGAGAUGGAUUACAUUC,SS18L2,0.4671
UUUCAUUAAGGUACUAUGG,C9orf57,-0.6279
AGAUUCUUUAGCUAUUUCG,CMPK2,1.674
UUACCCAGAAUUGGGAUCC,DOK1,0.3153
AUAGUUUAGCUGGUGAUUC,STARD6,-0.03157
UAUCUCGAGAGGCAAAUCC,ABCB11,1.09
UUUCUCACAGAUACGCUCC,FASN,0.1771
AGAAAUCUUUUGACAAUGG,CDC14C,-0.8239
AAGCUUUAUAGUAGUCUUU,ING3,-1.191
UUACUUCAUAGUACCAUAC,RSPRY1,0.8781
UUACGUCUGAGCACACUGG,KIF4B,0.5604
UACCGGAAUGAAAACCUUG,UBAP2L,0.852
UCCUUAGACUCUGGUGCCC,LOC646513,-0.5949
UUAUUGAAACCAGUAGGAG,TM4SF20,0.6523
UAAACAGCCGCUUUCAUAG,TMEM50B,0.7595
UAAGACAAGGUUUCGAAUG,PTPRR,-0.04759
UCCGAUGCUAGAAUGGUGC,MED23,0.831
UGUAUUAAUAUCUUGGGUU,BMP2KL,0.08192
UCCAUUAACAAUUUCCGCC,SPEF2,1.02
AAGCUUGAACUUCACAUCC,DHX34,-0.1906
AUACGAUUGAAACUCAUCU,LINC00442,1.121
UCCUCGUCCUCUGAAGUUC,HNRNPU,-1.609
UCAUGAGCUCGAAAAACUC,PGS1,0.14
AACGAUCAAGUUCCUGUGC,C20orf24,-0.04483
UUGGUGAUAAGCUCAGAUA,HIST1H1D,0.559
UAGCAUAUUCCUUUGGAUC,GC,-0.4524
AAAGAGUAGGUCAAUUUCC,PCDHGA5,-0.2922
UUGUCAUUCAUGUUGUCUC,CHGB,0.2277
UUCUGCACUAGAUUGGGUC,HDDC2,0.3302
AAAGCUUCAUUAAACGGUC,SPTLC2,-1.424
UAAGCAUAGUCAGAAGUCU,MCHR2-AS1,-0.218
AAACAUGUCAAAGCCGUCA,TOM1L2,0.1527
UGGUUUACCAUCCUGUACC,AAAS,-0.0362

Source: PubChem BioAssay AID1159506 (NCATS, 2015).